Measurements reported in publication PMC4227870.
These are yes or no findings as the source states them, for the method shown. In cells and extracts the contact can be indirect. Some results given as binding are weak or reduced against the parent protein; the word gives no strength.

Sequences of proteins named here, by UniProt entry; tags and fusion partners are left off. A change or cut given only in a name is not applied to a line headed by its entry. Residues count along the entry.
UniProt P17948, residues 27-785: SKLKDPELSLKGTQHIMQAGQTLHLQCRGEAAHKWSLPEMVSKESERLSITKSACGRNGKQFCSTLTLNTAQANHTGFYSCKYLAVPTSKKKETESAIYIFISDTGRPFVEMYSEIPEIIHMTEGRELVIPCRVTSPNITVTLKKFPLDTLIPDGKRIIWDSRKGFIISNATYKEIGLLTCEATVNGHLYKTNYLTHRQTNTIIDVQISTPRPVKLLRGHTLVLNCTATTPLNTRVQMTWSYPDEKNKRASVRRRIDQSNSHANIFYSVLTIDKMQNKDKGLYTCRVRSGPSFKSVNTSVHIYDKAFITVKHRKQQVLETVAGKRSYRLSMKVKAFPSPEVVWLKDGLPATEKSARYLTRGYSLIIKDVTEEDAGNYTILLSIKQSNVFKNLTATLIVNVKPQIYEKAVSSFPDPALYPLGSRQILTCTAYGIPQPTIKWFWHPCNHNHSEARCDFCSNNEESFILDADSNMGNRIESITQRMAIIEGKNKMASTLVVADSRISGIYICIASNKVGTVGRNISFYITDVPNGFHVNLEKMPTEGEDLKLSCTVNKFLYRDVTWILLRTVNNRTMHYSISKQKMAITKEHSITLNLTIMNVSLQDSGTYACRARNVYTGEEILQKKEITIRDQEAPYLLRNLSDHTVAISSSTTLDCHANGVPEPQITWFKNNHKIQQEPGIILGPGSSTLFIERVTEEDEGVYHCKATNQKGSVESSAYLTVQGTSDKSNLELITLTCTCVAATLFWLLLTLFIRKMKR
UniProt P35968, residues 20-1356: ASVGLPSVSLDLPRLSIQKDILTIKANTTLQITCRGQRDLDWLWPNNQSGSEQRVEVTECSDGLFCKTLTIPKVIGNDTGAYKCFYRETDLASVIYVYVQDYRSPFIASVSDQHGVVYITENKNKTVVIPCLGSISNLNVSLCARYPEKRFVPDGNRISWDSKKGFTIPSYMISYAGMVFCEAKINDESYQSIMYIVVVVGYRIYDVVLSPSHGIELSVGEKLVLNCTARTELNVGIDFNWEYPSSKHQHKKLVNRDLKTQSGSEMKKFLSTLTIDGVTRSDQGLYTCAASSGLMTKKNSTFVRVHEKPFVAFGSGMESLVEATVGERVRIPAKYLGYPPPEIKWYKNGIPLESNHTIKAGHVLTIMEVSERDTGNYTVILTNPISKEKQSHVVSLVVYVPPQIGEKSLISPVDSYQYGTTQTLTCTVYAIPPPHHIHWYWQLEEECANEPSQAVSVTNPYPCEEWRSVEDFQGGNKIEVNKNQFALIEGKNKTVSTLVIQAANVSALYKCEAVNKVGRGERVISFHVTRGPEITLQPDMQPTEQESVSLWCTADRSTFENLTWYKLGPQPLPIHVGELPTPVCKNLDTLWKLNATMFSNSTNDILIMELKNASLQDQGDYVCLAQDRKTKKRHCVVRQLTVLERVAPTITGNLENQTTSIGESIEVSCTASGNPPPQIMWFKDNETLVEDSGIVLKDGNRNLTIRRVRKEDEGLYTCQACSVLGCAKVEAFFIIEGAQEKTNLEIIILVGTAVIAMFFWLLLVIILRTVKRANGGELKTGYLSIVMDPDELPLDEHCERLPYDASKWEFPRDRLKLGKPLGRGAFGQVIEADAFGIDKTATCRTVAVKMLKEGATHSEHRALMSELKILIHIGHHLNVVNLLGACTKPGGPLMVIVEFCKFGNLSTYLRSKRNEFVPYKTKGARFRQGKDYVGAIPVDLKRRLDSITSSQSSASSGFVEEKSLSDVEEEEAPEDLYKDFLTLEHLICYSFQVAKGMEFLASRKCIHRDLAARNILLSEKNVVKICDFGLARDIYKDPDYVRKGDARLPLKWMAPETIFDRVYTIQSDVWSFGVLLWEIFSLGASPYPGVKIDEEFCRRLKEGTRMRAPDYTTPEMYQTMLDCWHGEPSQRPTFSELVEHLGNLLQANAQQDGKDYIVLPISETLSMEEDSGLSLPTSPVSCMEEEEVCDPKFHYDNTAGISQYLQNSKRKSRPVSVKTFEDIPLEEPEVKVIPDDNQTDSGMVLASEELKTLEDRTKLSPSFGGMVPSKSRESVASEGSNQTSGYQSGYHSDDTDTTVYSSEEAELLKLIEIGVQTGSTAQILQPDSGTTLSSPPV

Target: Flt1 ΔCTD (deleted C-terminal domain, epitope tagged) (UniProt P17948)
Assay: co-IP; 1 mg lysate (150 mM NaCl, 50 mM Tris pH 7.4, 1% Triton X-100) of HEK293 cells co-transfected with Flt1 ΔCTD and VEGFR2 or control plasmid, treated with 30 nM PMA with or without 10 U/ml heparin overnight; precipitated with ANTI-FLAG M2 affinity gel, immunoblotted for VEGFR2 (Flk1)

- binding: binds
Substance: VEGFR2 (C-terminal GFP-tagged full length human VEGFR2) (from UniProt P35968 20-1356) (receptor)
